Reference: PubChem BioAssay AID652243 (Drosophila RNAi Screening Center, 2013)

Assay: 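Knock-downs that decrease or increase androgen receptor reporter signal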 (primary screen)
System: Drosophila S2R+ cells
Reagent: long dsRNA against Drosophila genes
Duration: 72 h (48 h, then 24 h hormone)
Treatment: synthetic androgen R1881 at 10 nM for 24 h
Detection: 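Per-well raw luminescence of the androgen-driven firefly reporter and of the Renilla control, two replicates each, without normalisation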
Reading the numbers: firefly reporter light: higher = more light from androgen-responsive reporter; Renilla control light: higher = more constitutive control signal (cell number, transfection)
Active means: 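Hit when the log firefly-to-Renilla ratio dropped or increased by a fixed fold versus the mean of GFP or LacZ controls across duplicate plates; lowering cut given as 1.5 and as 3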
Meaning of the calls: active = hit: reporter lowered or raised; inactive = no hit
The screen tested about 24,000 reagents; shown is an unselected part of those that have a named target and a result. In the full data, 246 (1%) got an active call. 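Plates not normalised; calls are printed but the firefly/Renilla ratio behind them is not deposited; fold cut for lowering reported inconsistently.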 Raw values are not corrected between plates. Unmarked entries are inactive. The numbers tell different reagents against one gene apart. A plus sign joins genes that one reagent is predicted to hit. No sequences are given here. The record does not give: the amount of reagent.

no.	gene knocked down	reagent no.	firefly reporter light, replicate 1	firefly reporter light, replicate 2	Renilla control light, replicate 1	Renilla control light, replicate 2
1	CG15117	1	1.70e6	1.56e6	7.49e5	6.75e5
2	CG15117	2	5.86e5	5.34e5	6.28e5	6.29e5
3	chp (chaoptin)	1	71012	42670	6.39e5	3.44e5
4	chp (chaoptin)	2	2.62e5	2.36e5	8.31e5	6.30e5
5	Syn1 + CG7370	1	8.79e5	9.07e5	1.56e6	2.22e6
6	Syn1 + CG7370	2	2.76e5	3.00e5	6.06e5	7.53e5
7	unc80 (uncoordinated 80)	1	2.24e5	2.15e5	2.46e6	2.65e6
8	RhoGAP102A (Rho GTPase activating protein at 102A)	1	2.43e5	3.41e5	4.41e6	3.70e6
9	RhoGAP102A (Rho GTPase activating protein at 102A)	2	1.16e6	1.04e6	2.29e6	1.60e6
10	U2af38 (U2 small nuclear riboprotein auxiliary factor 38)	1	6.29e5	7.44e5	1.56e6	8.83e5
11	U2af38 (U2 small nuclear riboprotein auxiliary factor 38)	2	3.61e5	3.69e5	9.27e5	7.99e5
12	CG5274	1	44485	43097	2.98e5	3.72e5
13	CG7903	1	2.50e5	2.48e5	1.86e6	3.10e6
14	CG7903	2	4.93e5	5.09e5	1.32e6	1.27e6
15	CG31343	1	61266	79478	9.73e5	1.05e6
16	CG14232 + CG14230	1	6.61e5	5.80e5	1.37e6	1.08e6
17	CG33340	1	1.54e5	1.96e5	1.65e6	1.24e6
18	CG33340	2	4.41e5	5.07e5	5.41e5	5.33e5
19	CG7049	1	6.17e5	8.38e5	1.48e6	1.51e6
20	CG7049	2	3.17e5	4.35e5	6.33e5	5.47e5
21	CG12935	1	1.19e6	9.12e5	1.68e6	1.61e6
22	Usp8 (Ubiquitin specific protease 8)	1	95272	72432	6.91e5	5.68e5
23	Prosalpha3 (Proteasome alpha3 subunit)	1	1.32e5	1.66e5	1.05e6	1.20e6
24	CG31804	1	8.53e5	7.26e5	1.32e6	1.15e6

Sorted by “firefly reporter light, replicate 1” (lowest first): some entries from above
gene knocked down	reagent no.	firefly reporter light, replicate 1	firefly reporter light, replicate 2	Renilla control light, replicate 1	Renilla control light, replicate 2
CG5274	1	44485	43097	2.98e5	3.72e5
U2af38 (U2 small nuclear riboprotein auxiliary factor 38)	2	3.61e5	3.69e5	9.27e5	7.99e5
